Patent publication US20050089583A1, “Novel herbal composition for the treatment of gastric ulcer” (priority 2003, published 2005)
At least one compound was matched to its structure with a doubt left.

How the values were obtained:
Histamine induced ulcer = Histamine induced ulcer model; format: in vivo, guinea pig; conditions: HF2 50 mg/Kg p.o., Omeprazole 10 mg/kg p.o.
Description: Method: Animals were fasted for 24 hours with access to water. The drug was given orally 1 hour prior to the histamine administration. Histamine was administered in a dose of 0.25 mg/Kg, i.m. at 30 minutes interval-for 7 times and it induced 100% duodenal ulceration in guinea pig (According to the method of Watt and Eagleton 1964)^4. The animals were sacrificed after half an hour of last injection under ether anesthesia. The stomach along with duodenum was removed washed thoroughly and examined for the lesions and ulcer index with protection index was calculated. The effect of the herbal composition “HF2” and the standard drug “Omeprazole” against Histamine induced ulcer model is given in Table 4.

[1] = system: aspirin induced gastric ulcer; experiment: Aspirin induced gastric ulcer model; format: in vivo, rats; conditions: HF 2 100 mg/Kg p.o., Omeprazole 10 mg/Kg p.o.
Excerpt: (§1) The following arbitrary scoring system was used to grade the severity and intensity of the lesions. • 1. Shedding of epithelium=10 • 2. Petechial and frank hemorrhages=20 • 3. One or two ulcers=30 • 4. More than two ulcers=40 • 5. Perforated ulcers=50 The presence of any of these lesions was considered as a positive ulcerogenic response which has been shown as percentage of rats showing gastric lesions.
The severity of ulcers is expressed in terms of ulcer index, which is the mean score of gastric lesions of all the rats in a group which is defined as: • Ulcer Index (U. I.)=Us+Up×10^−1 • Where Us=Mean severity of ulcer score and Up-Percentage of animals with Ulcer incidences.
(§2) The percentage protection is calculated as follows: • Percentage protection ═(C-T/C)×100. • Wherein • C=Number of animals showing ulcer response in control group and • T=Number of animals showing ulcer response in test group.
Method: Gastric ulceration was induced by aspirin according to the method of Djahanguiri (1969). Aspirin (150 mg/Kg.) was administered per orally as a suspension in gum-acacia and the animal was sacrificed 5 hr. after the aspirin treatment and the ulcer index with protection index were calculated.

[2] = system: Cold Restraint Ulcers (CRU); experiment: Cold restraint ulcer (CRU) model; format: in vivo, rats; conditions: HF2 50 mg/Kg p.o., Omeprazole 10 mg/Kg p.o.
Description: Method: Adult rats of either sex, weighing 150-175 Gms were fasted for 24 hours with free access to water. The test drugs were administered 45 minutes before immobilizing the animals. The rats were immobilized in the restraint cage at 4° C. in BOD incubator for 2 hrs and were sacrificed immediately after the restraint period. (According to the method of Senay and Levine 1967). The abdomen was cut opened; stomach was taken out and incised along the greater curvature to observe the gastric lesions with the help of Magnascope (5× magnification).
as §1, with “gastric lesions. […]” for “gastric lesions.”
as §2

Compound: COc1ccc2[nH]c([S+]([O-])Cc3ncc(C)c(OC)c3C)nc2c1 (stereo not drawn) [Omeprazole]
- No. of animals showing ulcer/total No. of animals used (Histamine induced ulcer): 1/3
- No. of rats showing ulcer/total No. of rats used [1]: 4/6
- No. of rats showing ulcer/total No. of rats used [2]: 5/10
